From publication PMC5393187 come the findings set out here.

For the test, the target named is T1, Cue3, epitope-tagged (S. cerevisiae) (UniProt P53137).
T1 sequence: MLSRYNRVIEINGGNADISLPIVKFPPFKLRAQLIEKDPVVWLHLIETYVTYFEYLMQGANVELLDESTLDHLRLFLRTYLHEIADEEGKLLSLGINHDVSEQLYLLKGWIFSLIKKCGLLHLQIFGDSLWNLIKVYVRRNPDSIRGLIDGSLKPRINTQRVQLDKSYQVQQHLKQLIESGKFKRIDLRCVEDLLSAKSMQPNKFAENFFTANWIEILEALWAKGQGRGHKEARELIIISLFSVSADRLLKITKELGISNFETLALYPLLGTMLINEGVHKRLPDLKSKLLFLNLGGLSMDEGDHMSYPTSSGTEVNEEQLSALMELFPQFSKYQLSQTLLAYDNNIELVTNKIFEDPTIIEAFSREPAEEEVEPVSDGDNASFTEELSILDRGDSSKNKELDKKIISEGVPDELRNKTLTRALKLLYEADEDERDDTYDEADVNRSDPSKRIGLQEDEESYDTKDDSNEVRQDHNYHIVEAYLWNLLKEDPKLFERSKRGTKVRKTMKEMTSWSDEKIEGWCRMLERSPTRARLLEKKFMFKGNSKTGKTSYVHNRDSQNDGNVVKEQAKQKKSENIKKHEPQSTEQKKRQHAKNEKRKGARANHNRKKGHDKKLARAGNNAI
Put plainly: co-IP; IPs from cryo-ground yeast extract on Anti-FLAG M2 Affinity Resin, 1 h, 4°C, IP buffer (20 mM HEPES K pH 7.4, 100 mM KOAc, 10 mM MgCl2); detected by immunoblot (anti-HA, anti-Flag). (In general: In western blotting, separated proteins are transferred to a membrane and probed.)

These are yes or no findings as the source states them, for the method shown. In cells and extracts the contact can be indirect. Some entries that bind do so weakly or less than the wild type. Sequences can lack the tags named with a protein.

B1: Ykr023w, epitope-tagged (protein, UniProt P36119 1-530)
chain: MTRKQAIDYAIKQVPQILPLEESDVKALCEQVLSTSSDDPEQIASKFLEFLGHEDLSFEFVMKFNELLNQNDKKEEKKTKNVHLEHTAPTSWKNESKQPTNNYINKKGDEKPKKLKDEKKSSTTRPTVQPSNQSTQSNPIKEKKEHRSKGKLQSLQEIDEAIKMLELRDSGSSKNCNCQGTRHPVFDIAPNCLHCGKVVCVIEGLNKGKCGHCHEQLISDNERTQMVEILNQEKNELNGSSSSLSNASNGANVPKKKTKTYKITSGMGKNLFAEQDKLFDFIERKRERERKRNEVLKLQEEKEESEAKERQASEHDHKAEENPELLAAQERLDRLLYFQDTSAERTKIIDNASDFDMNQEVGLWGSARERALALKKQQRNLRKWEKVEKERNGRREKYVVSMNIGSNGKVTMTEVPKDTENVIAGSDDDISDISDEEDISDLKHIHALKSEINTTKSLENLHLQSKAWDYERDKKQFDRPTYVKKNSDTAQQNRKTEEKAHDMQAYDLKSRVQVDQNADASVEQNILAVL
As to B1, the binding result is on record as “binds”.
